Paper PMC4859800
Results are given in words; binding and its absence hold for the method and conditions named.

Tests used:
Test in all cases: two-hybrid; array-based Y2H matrix; preys in pACT2 (PJ69-4a) mated against 23 baits in pAS2-1 (PJ69-4α); growth on SD-Leu-Trp-His + 6 mM 3-AT greater than the negative control after 2 weeks
[1] = biological target: T1, Mak5 (Y2H bait, pAS2-1) (S. cerevisiae) (UniProt P38112)
T1 sequence: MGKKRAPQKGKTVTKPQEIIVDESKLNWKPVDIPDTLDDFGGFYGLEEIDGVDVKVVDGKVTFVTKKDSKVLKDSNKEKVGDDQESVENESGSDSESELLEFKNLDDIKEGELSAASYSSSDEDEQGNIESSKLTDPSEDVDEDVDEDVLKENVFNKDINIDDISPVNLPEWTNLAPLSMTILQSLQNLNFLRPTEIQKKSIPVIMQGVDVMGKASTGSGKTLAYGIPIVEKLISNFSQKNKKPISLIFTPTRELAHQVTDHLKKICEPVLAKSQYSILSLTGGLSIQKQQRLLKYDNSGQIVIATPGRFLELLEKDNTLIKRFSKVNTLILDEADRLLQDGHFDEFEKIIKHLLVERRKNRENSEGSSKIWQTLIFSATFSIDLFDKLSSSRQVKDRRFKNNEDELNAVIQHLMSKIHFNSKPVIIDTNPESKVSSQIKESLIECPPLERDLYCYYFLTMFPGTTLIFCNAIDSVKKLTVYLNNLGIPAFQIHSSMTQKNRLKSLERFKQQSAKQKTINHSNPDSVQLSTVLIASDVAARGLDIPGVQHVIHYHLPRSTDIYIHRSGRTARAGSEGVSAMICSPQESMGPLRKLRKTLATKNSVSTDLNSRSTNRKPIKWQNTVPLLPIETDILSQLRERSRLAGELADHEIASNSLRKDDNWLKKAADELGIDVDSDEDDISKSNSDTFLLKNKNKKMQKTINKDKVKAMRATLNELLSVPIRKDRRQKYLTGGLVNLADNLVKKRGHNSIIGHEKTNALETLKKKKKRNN

[2] = biological target: T2, Dbp10 (Y2H bait, pAS2-1) (S. cerevisiae) (UniProt Q12389)
T2 sequence: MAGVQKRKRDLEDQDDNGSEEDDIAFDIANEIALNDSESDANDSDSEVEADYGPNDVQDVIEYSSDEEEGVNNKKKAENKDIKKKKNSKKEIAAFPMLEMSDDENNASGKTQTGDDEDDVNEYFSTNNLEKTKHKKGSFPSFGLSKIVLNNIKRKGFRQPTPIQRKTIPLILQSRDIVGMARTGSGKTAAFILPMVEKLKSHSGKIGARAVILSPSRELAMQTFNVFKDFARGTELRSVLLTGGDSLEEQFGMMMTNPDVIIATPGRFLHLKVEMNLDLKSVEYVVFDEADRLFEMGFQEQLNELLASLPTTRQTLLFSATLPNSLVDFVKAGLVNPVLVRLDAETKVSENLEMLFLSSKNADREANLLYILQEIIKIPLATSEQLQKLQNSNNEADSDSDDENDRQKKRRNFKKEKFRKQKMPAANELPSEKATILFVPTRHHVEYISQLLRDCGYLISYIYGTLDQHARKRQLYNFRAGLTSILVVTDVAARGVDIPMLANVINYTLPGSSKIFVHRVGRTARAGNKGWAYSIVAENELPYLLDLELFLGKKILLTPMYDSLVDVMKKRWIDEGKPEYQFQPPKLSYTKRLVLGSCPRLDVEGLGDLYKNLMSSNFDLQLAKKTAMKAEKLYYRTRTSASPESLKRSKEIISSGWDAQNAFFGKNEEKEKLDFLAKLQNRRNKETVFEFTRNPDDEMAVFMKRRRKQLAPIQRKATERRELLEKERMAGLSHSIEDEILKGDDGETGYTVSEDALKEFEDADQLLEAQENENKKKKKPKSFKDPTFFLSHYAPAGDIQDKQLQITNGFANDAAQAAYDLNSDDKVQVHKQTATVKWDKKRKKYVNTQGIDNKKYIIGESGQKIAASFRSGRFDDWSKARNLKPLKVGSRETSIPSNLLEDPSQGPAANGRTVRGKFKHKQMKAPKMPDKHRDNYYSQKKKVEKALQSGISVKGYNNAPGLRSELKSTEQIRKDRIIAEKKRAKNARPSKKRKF

[3] = biological target: T3, Spb4 (Y2H bait, pAS2-1) (S. cerevisiae) (UniProt P25808)
T3 sequence: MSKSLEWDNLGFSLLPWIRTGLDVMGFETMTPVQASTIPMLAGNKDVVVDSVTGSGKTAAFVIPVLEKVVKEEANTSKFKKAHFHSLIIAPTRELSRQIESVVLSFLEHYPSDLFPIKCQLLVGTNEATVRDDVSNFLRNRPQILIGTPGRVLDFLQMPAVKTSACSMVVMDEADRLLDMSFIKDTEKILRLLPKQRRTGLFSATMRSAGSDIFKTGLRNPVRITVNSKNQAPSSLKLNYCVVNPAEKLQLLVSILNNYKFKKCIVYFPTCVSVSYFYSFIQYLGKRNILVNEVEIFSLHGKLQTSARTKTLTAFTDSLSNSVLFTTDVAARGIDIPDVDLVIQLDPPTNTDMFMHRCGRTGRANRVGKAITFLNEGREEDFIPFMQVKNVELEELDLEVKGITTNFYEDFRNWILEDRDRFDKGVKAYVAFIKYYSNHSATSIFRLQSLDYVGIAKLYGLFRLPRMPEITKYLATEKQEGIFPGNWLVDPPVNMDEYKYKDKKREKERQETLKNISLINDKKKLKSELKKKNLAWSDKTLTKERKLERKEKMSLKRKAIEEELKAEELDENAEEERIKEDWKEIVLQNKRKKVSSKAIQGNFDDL

Measured: binding

B1: Nop4 RRM 1–2 (Y2H prey, pACT2) (domain or fragment, UniProt P37838 1-250)
chain: MEETIENVEVPSSNVSKQNDDGLDMKTLFVRSIPQDVTDEQLADFFSNFAPIKHAVVVKDTNKRSRGFGFVSFAVEDDTKEALAKARKTKFNGHILRVDIAKRRDRSKKTSEVVEKSTPESSEKITGQNNEDEDDADGEDSMLKGKPKLIIRNMPWSCRDPVKLKKIFGRYGTVVEATIPRKRDGKLCGFAFVTMKKISNCRIALENTKDLKIDGRKVAVDFAVQKNRWEDYKKAQPEMNDKDDNESGNE
no binding: all assays above
